Measured values from the supplement of paper PMC12819154, “High-throughput peptide-centric local stability assay extends protein–ligand identification to membrane proteins, tissues and bacteria” (Nature Structural & Molecular Biology, 2025).
The list shows a part of the results, in another mix than the full data. Most values lie at the level of the controls, where differences are scatter.

Protein sequences, listed by entry. Tags and fused reporters are not part of them. Lines headed by an entry give the natural chain unless they say otherwise; changes in a name come on top.
UniProt Q47158: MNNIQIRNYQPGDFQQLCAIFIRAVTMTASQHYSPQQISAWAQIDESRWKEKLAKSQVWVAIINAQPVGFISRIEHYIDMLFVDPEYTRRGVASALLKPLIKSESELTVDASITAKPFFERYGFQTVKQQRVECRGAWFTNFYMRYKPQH
UniProt P77730: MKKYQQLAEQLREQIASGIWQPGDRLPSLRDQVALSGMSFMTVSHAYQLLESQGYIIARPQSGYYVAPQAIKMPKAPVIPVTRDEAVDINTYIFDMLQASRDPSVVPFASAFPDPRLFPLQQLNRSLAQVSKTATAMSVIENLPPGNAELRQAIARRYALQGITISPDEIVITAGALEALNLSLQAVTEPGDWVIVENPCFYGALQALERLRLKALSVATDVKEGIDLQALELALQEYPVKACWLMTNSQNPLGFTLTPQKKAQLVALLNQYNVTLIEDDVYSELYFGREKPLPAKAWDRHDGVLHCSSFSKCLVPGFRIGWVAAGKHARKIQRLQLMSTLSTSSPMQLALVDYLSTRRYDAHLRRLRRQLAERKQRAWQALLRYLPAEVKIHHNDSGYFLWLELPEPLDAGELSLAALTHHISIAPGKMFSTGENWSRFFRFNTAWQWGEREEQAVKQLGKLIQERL
UniProt P77324: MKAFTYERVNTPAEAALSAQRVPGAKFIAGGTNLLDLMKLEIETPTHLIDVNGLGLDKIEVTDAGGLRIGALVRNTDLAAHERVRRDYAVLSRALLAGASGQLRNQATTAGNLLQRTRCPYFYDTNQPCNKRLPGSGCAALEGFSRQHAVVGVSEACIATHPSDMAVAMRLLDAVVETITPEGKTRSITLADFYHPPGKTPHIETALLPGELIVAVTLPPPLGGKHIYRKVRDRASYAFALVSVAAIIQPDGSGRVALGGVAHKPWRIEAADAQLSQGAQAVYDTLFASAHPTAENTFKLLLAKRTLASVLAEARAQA
UniProt P77596: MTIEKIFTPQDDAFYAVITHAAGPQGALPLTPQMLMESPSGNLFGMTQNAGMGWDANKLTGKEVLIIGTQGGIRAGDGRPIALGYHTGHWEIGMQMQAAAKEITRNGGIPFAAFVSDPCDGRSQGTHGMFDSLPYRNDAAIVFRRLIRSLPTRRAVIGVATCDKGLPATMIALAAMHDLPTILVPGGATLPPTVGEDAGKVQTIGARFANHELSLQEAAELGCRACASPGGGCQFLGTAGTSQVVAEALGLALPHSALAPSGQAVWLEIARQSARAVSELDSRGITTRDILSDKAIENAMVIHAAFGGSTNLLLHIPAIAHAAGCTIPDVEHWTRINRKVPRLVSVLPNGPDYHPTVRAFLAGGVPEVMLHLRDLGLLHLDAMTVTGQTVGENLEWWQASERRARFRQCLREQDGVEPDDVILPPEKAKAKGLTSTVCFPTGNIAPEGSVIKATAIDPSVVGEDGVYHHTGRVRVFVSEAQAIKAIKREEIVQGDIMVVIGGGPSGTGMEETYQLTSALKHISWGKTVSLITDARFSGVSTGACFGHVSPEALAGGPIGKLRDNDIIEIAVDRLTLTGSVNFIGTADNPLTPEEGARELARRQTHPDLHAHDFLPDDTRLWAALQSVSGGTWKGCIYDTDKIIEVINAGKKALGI
UniProt Q46901: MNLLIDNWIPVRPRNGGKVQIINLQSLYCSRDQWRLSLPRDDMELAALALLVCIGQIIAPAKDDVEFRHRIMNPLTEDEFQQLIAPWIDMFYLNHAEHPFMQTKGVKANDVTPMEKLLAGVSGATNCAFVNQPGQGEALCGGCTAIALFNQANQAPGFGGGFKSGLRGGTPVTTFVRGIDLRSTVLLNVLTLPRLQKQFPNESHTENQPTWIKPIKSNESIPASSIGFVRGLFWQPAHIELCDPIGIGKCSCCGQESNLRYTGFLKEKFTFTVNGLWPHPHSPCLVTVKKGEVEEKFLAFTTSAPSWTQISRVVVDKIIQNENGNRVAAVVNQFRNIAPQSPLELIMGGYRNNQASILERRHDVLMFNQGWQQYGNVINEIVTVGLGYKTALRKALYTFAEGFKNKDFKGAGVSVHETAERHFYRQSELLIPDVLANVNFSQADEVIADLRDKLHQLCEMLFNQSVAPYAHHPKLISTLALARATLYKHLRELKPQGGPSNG
UniProt Q47690: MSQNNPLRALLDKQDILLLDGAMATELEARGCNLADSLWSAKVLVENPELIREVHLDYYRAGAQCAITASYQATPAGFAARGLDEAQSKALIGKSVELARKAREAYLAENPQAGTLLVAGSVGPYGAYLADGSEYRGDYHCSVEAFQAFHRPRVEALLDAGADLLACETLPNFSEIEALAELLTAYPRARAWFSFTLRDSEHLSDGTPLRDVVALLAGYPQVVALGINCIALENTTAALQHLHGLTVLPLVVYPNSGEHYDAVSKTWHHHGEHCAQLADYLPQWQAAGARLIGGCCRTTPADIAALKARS
UniProt P77318: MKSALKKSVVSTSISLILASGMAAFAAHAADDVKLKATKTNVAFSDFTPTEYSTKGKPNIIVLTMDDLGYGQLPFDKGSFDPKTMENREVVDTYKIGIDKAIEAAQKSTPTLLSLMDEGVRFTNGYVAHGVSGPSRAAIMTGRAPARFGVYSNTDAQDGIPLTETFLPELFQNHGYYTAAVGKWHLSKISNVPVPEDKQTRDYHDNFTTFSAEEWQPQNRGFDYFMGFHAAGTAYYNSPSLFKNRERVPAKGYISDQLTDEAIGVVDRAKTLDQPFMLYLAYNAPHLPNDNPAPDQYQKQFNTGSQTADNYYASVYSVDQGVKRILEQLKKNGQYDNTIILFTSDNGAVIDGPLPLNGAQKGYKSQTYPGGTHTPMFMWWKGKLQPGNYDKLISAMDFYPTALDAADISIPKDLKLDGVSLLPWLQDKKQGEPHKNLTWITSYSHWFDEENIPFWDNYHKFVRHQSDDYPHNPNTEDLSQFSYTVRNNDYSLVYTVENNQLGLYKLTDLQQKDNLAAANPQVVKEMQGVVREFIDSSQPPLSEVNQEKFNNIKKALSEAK
UniProt P77564: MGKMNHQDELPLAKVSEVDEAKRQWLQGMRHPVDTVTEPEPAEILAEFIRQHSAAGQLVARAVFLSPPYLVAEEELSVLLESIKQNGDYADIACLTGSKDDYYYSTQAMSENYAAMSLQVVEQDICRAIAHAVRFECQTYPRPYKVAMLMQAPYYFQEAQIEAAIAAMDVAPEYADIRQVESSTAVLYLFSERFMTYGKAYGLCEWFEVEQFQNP
UniProt Q06067: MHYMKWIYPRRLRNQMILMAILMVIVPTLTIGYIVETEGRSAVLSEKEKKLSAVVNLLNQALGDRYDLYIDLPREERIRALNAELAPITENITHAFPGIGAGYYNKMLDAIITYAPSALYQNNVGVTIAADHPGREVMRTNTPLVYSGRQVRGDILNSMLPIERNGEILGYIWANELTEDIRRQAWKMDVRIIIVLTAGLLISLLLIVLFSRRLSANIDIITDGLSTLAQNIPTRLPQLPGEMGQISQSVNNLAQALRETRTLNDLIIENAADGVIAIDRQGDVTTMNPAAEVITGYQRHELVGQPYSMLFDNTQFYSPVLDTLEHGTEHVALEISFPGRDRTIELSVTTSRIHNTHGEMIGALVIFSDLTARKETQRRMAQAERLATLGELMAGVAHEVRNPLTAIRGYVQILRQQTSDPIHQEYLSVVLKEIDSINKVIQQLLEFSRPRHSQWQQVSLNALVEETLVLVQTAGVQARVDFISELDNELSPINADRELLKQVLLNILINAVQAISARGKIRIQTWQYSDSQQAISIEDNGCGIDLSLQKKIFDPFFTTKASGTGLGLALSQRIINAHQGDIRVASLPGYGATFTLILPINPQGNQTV
UniProt P77609: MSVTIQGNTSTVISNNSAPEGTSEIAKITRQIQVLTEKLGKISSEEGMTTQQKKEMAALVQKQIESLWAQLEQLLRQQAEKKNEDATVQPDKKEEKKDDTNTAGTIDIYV
UniProt P77467: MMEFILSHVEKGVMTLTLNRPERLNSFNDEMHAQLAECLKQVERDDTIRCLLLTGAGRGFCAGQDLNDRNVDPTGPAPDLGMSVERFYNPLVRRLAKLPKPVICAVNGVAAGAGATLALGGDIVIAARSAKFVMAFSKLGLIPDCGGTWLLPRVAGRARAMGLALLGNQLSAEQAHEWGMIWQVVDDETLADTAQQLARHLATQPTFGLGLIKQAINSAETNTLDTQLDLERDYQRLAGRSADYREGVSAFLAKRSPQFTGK
UniProt P77667: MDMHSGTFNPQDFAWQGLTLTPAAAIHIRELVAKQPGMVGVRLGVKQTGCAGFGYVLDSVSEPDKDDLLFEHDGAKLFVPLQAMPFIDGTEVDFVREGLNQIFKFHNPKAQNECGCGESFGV
UniProt P77585: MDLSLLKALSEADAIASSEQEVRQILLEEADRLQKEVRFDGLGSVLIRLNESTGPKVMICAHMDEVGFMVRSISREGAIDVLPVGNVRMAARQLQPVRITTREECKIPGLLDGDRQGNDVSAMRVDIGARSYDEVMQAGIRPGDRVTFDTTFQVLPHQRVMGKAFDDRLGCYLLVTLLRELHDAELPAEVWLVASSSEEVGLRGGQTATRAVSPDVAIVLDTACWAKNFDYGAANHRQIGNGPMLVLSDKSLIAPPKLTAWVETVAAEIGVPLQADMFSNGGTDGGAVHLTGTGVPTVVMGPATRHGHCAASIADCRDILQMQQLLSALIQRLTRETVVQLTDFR
UniProt Q2EES0: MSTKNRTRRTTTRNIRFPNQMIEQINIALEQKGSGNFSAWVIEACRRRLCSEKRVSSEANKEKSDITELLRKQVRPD
UniProt P77743: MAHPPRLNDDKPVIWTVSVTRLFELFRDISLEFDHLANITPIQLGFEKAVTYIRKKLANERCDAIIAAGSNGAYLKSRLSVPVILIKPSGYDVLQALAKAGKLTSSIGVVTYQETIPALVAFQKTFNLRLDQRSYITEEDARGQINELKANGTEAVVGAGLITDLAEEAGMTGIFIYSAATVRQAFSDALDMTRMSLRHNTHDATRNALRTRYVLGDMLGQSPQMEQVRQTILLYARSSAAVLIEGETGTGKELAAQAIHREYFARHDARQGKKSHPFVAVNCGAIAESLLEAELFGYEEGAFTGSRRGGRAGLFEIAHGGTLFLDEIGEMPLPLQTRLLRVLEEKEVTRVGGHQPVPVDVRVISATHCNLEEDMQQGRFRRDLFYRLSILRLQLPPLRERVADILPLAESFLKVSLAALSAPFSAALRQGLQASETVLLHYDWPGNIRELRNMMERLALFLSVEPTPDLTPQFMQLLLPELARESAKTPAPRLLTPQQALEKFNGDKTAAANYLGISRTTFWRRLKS
UniProt P77732: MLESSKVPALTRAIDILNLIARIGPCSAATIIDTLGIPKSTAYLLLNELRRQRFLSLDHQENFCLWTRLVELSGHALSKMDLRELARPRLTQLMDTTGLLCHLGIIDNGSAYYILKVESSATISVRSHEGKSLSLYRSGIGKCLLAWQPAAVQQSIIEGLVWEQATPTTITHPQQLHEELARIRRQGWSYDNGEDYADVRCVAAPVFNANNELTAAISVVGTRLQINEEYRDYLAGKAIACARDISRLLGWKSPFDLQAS
UniProt P77454: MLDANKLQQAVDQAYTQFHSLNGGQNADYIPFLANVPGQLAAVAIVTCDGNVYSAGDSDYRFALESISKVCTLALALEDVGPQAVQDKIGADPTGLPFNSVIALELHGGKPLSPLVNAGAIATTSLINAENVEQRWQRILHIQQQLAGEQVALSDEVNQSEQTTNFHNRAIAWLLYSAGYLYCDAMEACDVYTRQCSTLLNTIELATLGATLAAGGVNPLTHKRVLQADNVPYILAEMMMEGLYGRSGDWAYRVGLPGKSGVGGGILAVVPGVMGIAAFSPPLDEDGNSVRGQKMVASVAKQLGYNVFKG
UniProt Q46911: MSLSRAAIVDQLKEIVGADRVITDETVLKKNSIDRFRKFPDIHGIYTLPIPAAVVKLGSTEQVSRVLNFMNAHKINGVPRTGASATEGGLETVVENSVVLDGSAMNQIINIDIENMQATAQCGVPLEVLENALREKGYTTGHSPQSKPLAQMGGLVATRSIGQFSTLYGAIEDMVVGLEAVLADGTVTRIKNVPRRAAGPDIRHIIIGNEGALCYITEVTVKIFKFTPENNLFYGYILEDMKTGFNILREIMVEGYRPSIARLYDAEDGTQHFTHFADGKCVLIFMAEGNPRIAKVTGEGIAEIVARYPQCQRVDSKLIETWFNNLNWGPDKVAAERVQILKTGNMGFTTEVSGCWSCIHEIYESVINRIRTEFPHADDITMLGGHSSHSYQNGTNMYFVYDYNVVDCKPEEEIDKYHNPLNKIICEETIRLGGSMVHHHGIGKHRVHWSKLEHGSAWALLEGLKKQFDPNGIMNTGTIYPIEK
UniProt Q46798: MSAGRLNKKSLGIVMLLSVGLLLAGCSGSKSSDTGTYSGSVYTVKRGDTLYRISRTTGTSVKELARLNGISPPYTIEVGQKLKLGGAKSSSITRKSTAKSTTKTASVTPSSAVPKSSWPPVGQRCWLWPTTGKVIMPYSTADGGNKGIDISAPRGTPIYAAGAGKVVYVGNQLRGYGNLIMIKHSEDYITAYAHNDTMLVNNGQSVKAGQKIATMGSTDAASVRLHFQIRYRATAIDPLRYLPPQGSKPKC
UniProt P77695: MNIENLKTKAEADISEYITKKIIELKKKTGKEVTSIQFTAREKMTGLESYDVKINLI

Compound: Nc1ncnc2c1ncn2[C@@H]1O[C@H](COP(=O)(O)OP(=O)(O)OP(=O)(O)O)[C@@H](O)[C@H]1O [adenosine 5'-triphosphate]
Assay: log2 fold change of tryptic peptide abundance, ligand vs vehicle (limited proteolysis) (log2 ratio); higher = more trypsin-susceptible (destabilized)
Conditions: ligand concentration: 5 mM; sample: E. coli desalted lysate; replicate design: treated before aliquoting
Method: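 HT-PELSA: desalted E. coli K-12 BW25113 lysate (with 12 mM MgCl2) incubated with 5 mM ATP (pH 7) or water for 30 min at 25 C, then a 4 min trypsin pulse at 22 C. Peptides were quantified by DIA-MS (4 replicates). Value is the peptide log2 fold change (treated/control); negative = stabilized. Scale: negative = ligand-stabilized region.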
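Also: lysate desalted by size exclusion to strip endogenous ATP, peptide intensities built from DIA-NN precursor signals, and peptides missing any value discarded before comparison.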

Target	log2 fold change
UniProt Q47158 (peptide sequence: GVASALLKPLIK, peptide start residue: 91)	0.815
UniProt P77730 (peptide sequence: LFPLQQLNR, peptide start residue: 117)	-0.244
UniProt P77324 (peptide sequence: NTDLAAHER, peptide start residue: 75)	-0.393
UniProt P77596 (peptide sequence: FANHELSLQEAAELGCR, peptide start residue: 208)	0.278
UniProt Q46901 (peptide sequence: NNQASILER, peptide start residue: 352)	0.501
UniProt Q46809 (peptide sequence: VSTENVHR, peptide start residue: 160)	0.438
UniProt Q47690 (peptide sequence: TTPADIAALK, peptide start residue: 298)	0.236
UniProt Q47150 (peptide sequence: DADDLFDKLGI, peptide start residue: 76)	0.766
UniProt P77318 (peptide sequence: DNLAAANPQVVK, peptide start residue: 513)	-0.181
UniProt P77510 (peptide sequence: VKPNDSSINPIDR, peptide start residue: 540)	-0.116
UniProt P77564 (peptide sequence: QWLQGMR, peptide start residue: 24)	-0.0688
UniProt Q06067 (peptide sequence: VIQQLLEFSRPR, peptide start residue: 440)	0.717
UniProt P77609 (peptide sequence: KNEDATVQPDKK, peptide start residue: 82)	-0.259
UniProt P77467 (peptide sequence: EGVSAFLAK, peptide start residue: 246)	-0.511
UniProt P77309 (peptide sequence: LSPAGHNFLR, peptide start residue: 57)	-0.0915
UniProt P77667 (peptide sequence: EGLNQIFK, peptide start residue: 97)	0.174
UniProt P77562 (peptide sequence: AIDVASVVR, peptide start residue: 35)	0.698
UniProt P77585 (peptide sequence: NFDYGAANHR, peptide start residue: 228)	-0.641
UniProt Q47083 (peptide sequence: ILNEASNVR, peptide start residue: 73)	-0.396
UniProt P77434 (peptide sequence: SYNMAGWR, peptide start residue: 245)	0.387

Taken from above:
Value for UniProt Q46809 (peptide sequence: VSTENVHR, peptide start residue: 160) under log2 fold change: 0.438
Value for UniProt P77467 (peptide sequence: EGVSAFLAK, peptide start residue: 246) under log2 fold change: -0.511

(further entries)

Target	log2 fold change
UniProt Q2EES0 (peptide sequence: VSSEANKEK, peptide start residue: 55)	-0.681
UniProt P77743 (peptide sequence: TAAANYLGISR, peptide start residue: 509)	0.783
UniProt P77256 (peptide sequence: KIPLGTTDITLSR, peptide start residue: 3)	0.967
UniProt P77732 (peptide sequence: LVELSGHALSK, peptide start residue: 69)	0.654
UniProt P77239 (peptide sequence: IDPTQTQNLGVK, peptide start residue: 84)	0.282
UniProt P77454 (peptide sequence: QLGYNVFKG, peptide start residue: 302)	0.159
UniProt P77247 (peptide sequence: NELPDTLGLR, peptide start residue: 44)	0.406
UniProt P77333 (peptide sequence: ITTVEHAAK, peptide start residue: 98)	-0.259
UniProt P77335 (peptide sequence: MINTCNEYQK, peptide start residue: 281)	0.248
UniProt P77360 (peptide sequence: SSGICGSDVHYIYHQHR, peptide start residue: 36)	-0.437
UniProt P77402 (peptide sequence: VGYENVDHFAK, peptide start residue: 255)	0.988
UniProt Q47152 (peptide sequence: HHVDYIYINPVK, peptide start residue: 111)	-0.173
UniProt P77748 (peptide sequence: DHLVATVESYAPLMAR, peptide start residue: 710)	-0.452
UniProt Q46899 (peptide sequence: AEADNLDDKK, peptide start residue: 129)	-0.92
UniProt P77329 (peptide sequence: TQGIGILDR, peptide start residue: 375)	0.441
UniProt Q46911 (peptide sequence: EIMVEGYRPSIAR, peptide start residue: 250)	-0.329
UniProt Q47141 (peptide sequence: KIVQEDR, peptide start residue: 84)	-0.102
UniProt Q46798 (peptide sequence: RGDTLYR, peptide start residue: 46)	0.0741
UniProt Q47156 (peptide sequence: LEEITRR, peptide start residue: 73)	0.537
UniProt P77695 (peptide sequence: TGKEVTSIQFTAREK, peptide start residue: 29)	-0.382
